From PubChem BioAssay AID588497 (NMMLSC, 2011)
Where “and” joins values, the source holds several entries; their conditions need not be identical. Equal values may be shown once. In all, about 360,000 compounds went through this assay and about 780 (0.22%) were called active. Inconclusive results, whose numbers are uncertain, are shown with a selection of clear calls. No stated cut-off is given here; in the data, active means inhibition above about 35% (passing the limit was not always enough); inconclusive means no clear call, values can overlap the other calls.

Each compound was assayed on Botulinum neurotoxin type F light chain protease (Clostridium botulinum) (assay: BoNT/F light chain protease inhibitors, primary screen, biochemical, flow cytometry, MLPCN library (AID 588497; further: plate controls were buffer without enzyme for full effect and enzyme alone for no effect)). Conditions: Multiplex microsphere protease cleavage assay, at 10 µM, stronger effect = higher value.

SMILES	inhibition
COc1ccccc1NC(=O)c1ccc(NC(=O)CSc2nncn2C)cc1	inactive: -0.5%
Cc1nc(N2CCOCC2)nc(Oc2ccccc2F)c1[N+](=O)[O-]	inconclusive: -42.3%
O=C(NCc1ccco1)c1ccc(-c2csnn2)cc1	inconclusive: -62.9%
Cc1ccc(S(=O)(=O)NCc2ccccc2)cc1	inconclusive: 39.1%
CC(C)c1ccc(NNC(=O)C2CCC2)cc1	inconclusive: -3.8%
COc1ccc(/C(=N/OC(C)=O)c2nccc3cc(OC)c(OC)cc23)cc1OC	inconclusive: -111%
Cc1[nH]c(-c2ccccn2)nc(=S)c1Cl	inconclusive: -8.1%
CCCCCCC/C=N/Nc1nnc(Cc2ccccc2)c(=O)[nH]1	inconclusive: -23.1%
Nc1ccc(S(=O)(=O)Nc2nc3ccccc3o2)cc1	inconclusive: -16.7%
O=C(Oc1ccc(-c2csnn2)cc1)c1cccs1	inconclusive: 14.7%
COc1ccc(N(Cc2cc(=O)[nH]c3ccccc23)C(=O)CCl)cc1	inactive: -0.2%
CN(c1ccc(C(=O)NCc2ccc3c(c2)OCO3)cc1)S(=O)(=O)c1ccccc1	inactive: -5.9%
O=C(O)CC(c1cccc2ccccc12)n1cccc1 (configuration not stated)	inconclusive: 15.9%
O=C1c2cccc3cccc(c23)C(=O)N1CCCc1n[nH]c(=S)n1-c1ccccc1	inactive: 0.1%
O=C(O)C1C2C=CC(C2)C1C(=O)Nc1cccc(C(F)(F)F)c1 (configuration not stated)	active: 50.4%
C=CCn1c(SCCOC)nc2c1c(=O)[nH]c(=O)n2C	inactive: -1.2%
COc1cccc(-c2nnc(SCc3ccccn3)n2C)c1	inactive: -0.7%
Fc1ccc(CN2CCN(C(c3ccccc3)c3ccccc3)CC2)cc1	inconclusive: 8.8%
Cn1c(CC(=O)Nc2ccccc2)cc2ccccc21	inconclusive: -23.8%
CC(=O)C1=CCC(c2ccccc2)N(S(=O)(=O)c2ccccc2)C1 (configuration not stated)	inactive: -2.9% and inactive: 1.3%
COc1ccccc1/C=C/C=N/n1c(-c2ccccn2)n[nH]c1=S	inconclusive: -20.5%
CSc1nsc(SC)c1C(N)=O	inconclusive: -24.1%
Cc1nc(-c2ccc(C(F)(F)F)cc2)sc1C(=O)NN	inconclusive: 18.9%
CCN(CC)c1ccc(/C=N/NC(=O)c2nnn(-c3nonc3N)c2CN(C)C2CCCCC2)cc1	inactive: -5.8%
CC(=O)Nc1cccc(S(N)(=O)=O)c1C	inactive: 3.6%
Cc1oc2cc3oc(=O)c(CCC(=O)NCc4ccccn4)c(C)c3cc2c1C	inactive: -3.1%
O=C(Nc1nccs1)c1cccc(S(=O)(=O)N2CCCC2)c1	inactive: -6.4%

2 of the compounds above, with bars between the fields.
SMILES | inhibition
Cn1c(CC(=O)Nc2ccccc2)cc2ccccc21 | inconclusive: -23.8%
Cc1oc2cc3oc(=O)c(CCC(=O)NCc4ccccn4)c(C)c3cc2c1C | inactive: -3.1%
